Data as given in PubChem BioAssay AID1259254 (NCATS, 2017)

- Screen: 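Gene knock-downs that lead to re-replication, shown by excess G2 DNA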 (primary screen)
- Cell system: human HCT116 colorectal cancer cells
- Knock-down reagent: single siRNA against human genes
- Timing: 3 days
- Measurement: 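Imaged Hoechst DNA stain sorts each cell into a cycle phase by DNA amount; per plate, G2 fraction set to 0% for non-targeting and 100% for GMNN siRNA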
- Reading the numbers: G2 robust z-score and G2 cells, % of GMNN control: higher = more G2 cells, more excess DNA replication
- Rule for the call: 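An siRNA counts as active if its G2 robust z-score lies at least 5 MADs above the screen median; here such calls match roughly 38% of GMNN control or more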
The deposit covers about 59,000 reagents; below is a random part of them. In the full data, about 1,550 (2.6%) were called active. 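G2 share is only a proxy for re-replication; each gene was hit by three separate siRNAs, and active genes were retested.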 Reagents against one gene are numbered here. Not all columns of the deposit are shown. No sequences are given here. The record does not give: the amount of reagent.

With knock-down of DLL1 (GeneID 28514) #1, the record shows G2 robust z-score -0.473; G2 cells, % of GMNN control -0.361; inactive.
Against DLL1 (GeneID 28514) #2, the values are G2 robust z-score -0.524; G2 cells, % of GMNN control -0.717; inactive.
Silencing of DLL1 (GeneID 28514) #3 gave: G2 robust z-score -0.307; G2 cells, % of GMNN control 0.81; inactive.
Against HSDL1 (GeneID 83693) #1, the entry reads G2 robust z-score 0.429; G2 cells, % of GMNN control 5.98; inactive.
HSDL1 (GeneID 83693) #2 scored G2 robust z-score -0.932; G2 cells, % of GMNN control -3.59; inactive.
After knock-down of HSDL1 (GeneID 83693) #3 the results were G2 robust z-score 4.39; G2 cells, % of GMNN control 33.9; inactive.
VPS9D1 (GeneID 9605) #1 gave G2 robust z-score 7.33; G2 cells, % of GMNN control 54.5; active.
With knock-down of VPS9D1 (GeneID 9605) #2 the results were G2 robust z-score 0.684; G2 cells, % of GMNN control 7.78; inactive.
With knock-down of VPS9D1 (GeneID 9605) #3, the screen gave G2 robust z-score -0.234; G2 cells, % of GMNN control 1.32; inactive.
For INSL3 (GeneID 3640) #1, the entry reads G2 robust z-score -1.37; G2 cells, % of GMNN control -6.68; inactive.
Depletion of INSL3 (GeneID 3640) #2 resulted in: G2 robust z-score 1.38; G2 cells, % of GMNN control 12.7; inactive.
For INSL3 (GeneID 3640) #3 the deposit lists G2 robust z-score 5.26; G2 cells, % of GMNN control 40; active.

In a second layout: results already given
target	siRNA no.	G2 robust z-score	G2 cells, % of GMNN control	Outcome
INSL3 (GeneID 3640)	1	-1.37	-6.68	inactive
INSL3 (GeneID 3640)	2	1.38	12.7	inactive
